How the values were obtained:
[1] = SEM and EDS analysis of corrosion products; conditions: steel immersed 4 h in HCl solution, inhibitor 2.0 mmol L–1
Source text: Scanning electron microscopy (SEM) and energy dispersive Spec-troscopy (EDS) analysis were acquired using an FEI Quanta 3D FEG instrument.

[2] = Electrochemical polarization curve measurements
Protocol: The aqueous solutions were prepared from 5% (v/v) dimethyl sulfoxide in HCl 1 mol L^–1 in the absence and presence of inhibitors with inhibitor concentrations of 0.5, 1.5, and 2.0 mmol L^–1. The SAE 1020 steel was immersed in acid solutions for 30 min at 25 °C in open-circuit potential (OCP) conditions. Afterward, polarization curve (PC) analyses were performed, using an EmStat3+ potentiostat from PalmSens. A minimum of two runs were conducted for each experiment. An initial potential in the cathodic region (−150 mV vs OCP) was applied to measure the PC, with a sweep rate of 0.166 mV s^–1 toward more positive potentials until reaching +150 mV vs OCP. ,

SMILES | chloride on sample surface by EDS [1] | oxygen content of corrosion products by EDS [1] | inhibitor type from polarization curves ([2]; SAE 1020 steel in 0.1 mol L–1 HCl solution) | OCP shift ([2]; SAE 1020 steel in 0.1 mol L–1 HCl solution, 0.5, 1.5, 2.0 mmol L–1 inhibitor)
COC(=O)C(C#N)=C1NCCCCN1 [compound 12, Methyl 2-cyano-2-(1,3-diazepan-2-ylidene)-acetate] | Chloride traces were also detected | 8.33 wt % | – | –
N#CC(C(=O)c1ccccc1)=C1NCCCCN1 [compound 14, 2-(1,3-Diazepan-2-ylidene)-3-oxo-3-phenylpropanenitrile] | No chloride was detected | 4.01 wt % | mixed-type inhibitor | smaller than 85 mV

Reference: paper PMC12612871, “Novel 1,3-Diazepines as Nontoxic Corrosion Inhibitors” (ACS Omega, 2025)
